Experimental data: patent publication US20260234268A1, “ANTI-ASGR1 MONOCLONAL ANTIBODY AND USE THEREOF” (CHOLESGEN (SHANGHAI) CO., LTD., priority 2022, published 2026)

Tested on: mice fed a high-fat, high-cholesterol, and cholate (HF/HC/BS) diet
Assay: 4B9 and atorvastatin, alone or combined, in mice fed HF/HC/BS diet, 14 days (Example 2, FIG. 3)
Settings: 4B9 10 mg/kg/day i.p. every other day

Q: How did the “total amount of total bile acid in bile” value (atorvastatin 30 mg/kg/day intragastric daily (FIG. 3i)) turn out when CC(C)c1c(C(=O)Nc2ccccc2)c(-c2ccccc2)c(-c2ccc(F)cc2)n1CC[C@@H](O)C[C@@H](O)CC(=O)O [atorvastatin] was run?
A: almost no effect

Q: What about the “ratio of liver weight to body weight” value (8 groups of mice, atorvastatin 30 mg/kg/day intragastric daily (FIG. 3m)) of the same molecule?
A: No significant differences
